The values below come from the supplement of paper PMC10060354, “Discovery of a small molecule ligand of FRS2 that inhibits invasion and tumor growth” (Cellular Oncology, 2022).

By UniProt entry, the sequences of proteins in these tests, tags left out. Where a name states a change or a piece, a line headed by the entry shows the natural chain unless it says otherwise.
UniProt Q9NZM3: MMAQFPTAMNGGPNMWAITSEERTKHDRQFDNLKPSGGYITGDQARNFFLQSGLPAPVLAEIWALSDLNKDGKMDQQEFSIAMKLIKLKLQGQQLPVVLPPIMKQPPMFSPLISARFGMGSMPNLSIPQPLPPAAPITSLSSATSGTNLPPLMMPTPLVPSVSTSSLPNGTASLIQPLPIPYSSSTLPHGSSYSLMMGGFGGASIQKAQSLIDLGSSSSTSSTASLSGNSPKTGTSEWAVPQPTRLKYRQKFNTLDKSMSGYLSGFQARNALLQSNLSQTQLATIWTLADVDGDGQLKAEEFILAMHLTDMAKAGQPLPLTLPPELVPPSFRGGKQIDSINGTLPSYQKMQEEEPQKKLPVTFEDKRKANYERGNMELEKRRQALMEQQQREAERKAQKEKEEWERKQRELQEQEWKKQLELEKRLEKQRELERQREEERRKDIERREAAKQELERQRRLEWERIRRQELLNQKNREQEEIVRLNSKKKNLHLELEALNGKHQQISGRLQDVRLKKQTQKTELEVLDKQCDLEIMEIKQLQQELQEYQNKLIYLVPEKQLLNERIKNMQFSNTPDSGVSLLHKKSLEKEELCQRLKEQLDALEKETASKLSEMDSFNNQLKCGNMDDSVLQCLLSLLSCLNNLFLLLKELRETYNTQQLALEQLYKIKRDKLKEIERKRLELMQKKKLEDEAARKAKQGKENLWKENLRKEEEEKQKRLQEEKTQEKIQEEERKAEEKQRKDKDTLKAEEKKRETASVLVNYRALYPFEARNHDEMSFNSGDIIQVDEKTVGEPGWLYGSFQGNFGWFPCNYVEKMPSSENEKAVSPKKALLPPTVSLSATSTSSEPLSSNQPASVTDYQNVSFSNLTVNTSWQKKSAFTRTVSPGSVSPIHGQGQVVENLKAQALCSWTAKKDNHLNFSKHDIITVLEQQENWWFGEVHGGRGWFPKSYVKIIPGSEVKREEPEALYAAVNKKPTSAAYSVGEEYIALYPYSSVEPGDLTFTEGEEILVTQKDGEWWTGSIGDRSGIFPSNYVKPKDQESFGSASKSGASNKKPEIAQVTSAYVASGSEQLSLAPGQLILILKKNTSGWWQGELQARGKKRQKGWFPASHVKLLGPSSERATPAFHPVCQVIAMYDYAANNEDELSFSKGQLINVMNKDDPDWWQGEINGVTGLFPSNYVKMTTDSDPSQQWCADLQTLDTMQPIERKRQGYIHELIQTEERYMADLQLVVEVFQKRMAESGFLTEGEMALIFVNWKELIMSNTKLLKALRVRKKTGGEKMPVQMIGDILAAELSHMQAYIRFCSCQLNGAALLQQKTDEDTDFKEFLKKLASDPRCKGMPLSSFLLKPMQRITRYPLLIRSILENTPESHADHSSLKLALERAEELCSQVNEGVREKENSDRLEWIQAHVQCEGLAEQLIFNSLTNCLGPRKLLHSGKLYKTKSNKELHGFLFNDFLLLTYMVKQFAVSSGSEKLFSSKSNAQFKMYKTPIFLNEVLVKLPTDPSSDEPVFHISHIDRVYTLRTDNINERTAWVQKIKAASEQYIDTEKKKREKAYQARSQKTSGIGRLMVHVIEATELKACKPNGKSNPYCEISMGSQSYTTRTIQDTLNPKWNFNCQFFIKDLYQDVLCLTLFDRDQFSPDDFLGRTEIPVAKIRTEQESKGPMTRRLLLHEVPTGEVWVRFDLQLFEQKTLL
UniProt Q969R8: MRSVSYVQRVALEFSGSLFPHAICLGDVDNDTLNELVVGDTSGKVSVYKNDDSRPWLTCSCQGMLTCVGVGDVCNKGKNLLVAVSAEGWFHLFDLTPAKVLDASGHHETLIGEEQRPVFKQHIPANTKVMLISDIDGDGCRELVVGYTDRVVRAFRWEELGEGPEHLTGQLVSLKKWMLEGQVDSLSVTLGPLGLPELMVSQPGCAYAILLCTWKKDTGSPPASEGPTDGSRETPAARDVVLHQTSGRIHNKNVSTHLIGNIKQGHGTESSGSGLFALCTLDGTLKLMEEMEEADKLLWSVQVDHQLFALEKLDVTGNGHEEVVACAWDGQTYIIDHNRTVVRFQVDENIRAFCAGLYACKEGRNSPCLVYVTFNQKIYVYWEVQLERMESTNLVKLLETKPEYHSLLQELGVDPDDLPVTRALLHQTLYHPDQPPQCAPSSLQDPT
UniProt Q9Y6G5, whole entry: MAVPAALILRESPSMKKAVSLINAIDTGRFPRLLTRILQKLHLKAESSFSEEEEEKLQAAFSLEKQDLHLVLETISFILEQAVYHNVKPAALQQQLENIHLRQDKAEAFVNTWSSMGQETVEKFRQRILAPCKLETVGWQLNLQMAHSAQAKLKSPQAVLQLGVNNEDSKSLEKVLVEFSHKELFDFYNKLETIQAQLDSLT
UniProt Q92882: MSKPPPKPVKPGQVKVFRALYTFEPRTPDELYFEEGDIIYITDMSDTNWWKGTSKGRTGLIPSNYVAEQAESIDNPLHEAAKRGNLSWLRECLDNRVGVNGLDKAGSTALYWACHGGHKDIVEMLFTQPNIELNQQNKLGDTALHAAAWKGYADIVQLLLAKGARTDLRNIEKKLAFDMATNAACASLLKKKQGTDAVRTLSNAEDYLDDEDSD
UniProt Q9UKI2, whole entry: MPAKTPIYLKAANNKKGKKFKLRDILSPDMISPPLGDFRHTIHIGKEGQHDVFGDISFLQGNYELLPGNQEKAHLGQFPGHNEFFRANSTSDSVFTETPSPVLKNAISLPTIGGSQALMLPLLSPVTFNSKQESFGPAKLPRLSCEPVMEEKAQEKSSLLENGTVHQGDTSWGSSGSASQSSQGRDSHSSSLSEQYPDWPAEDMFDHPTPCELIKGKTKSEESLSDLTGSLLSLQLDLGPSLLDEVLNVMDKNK
UniProt Q9P0B6: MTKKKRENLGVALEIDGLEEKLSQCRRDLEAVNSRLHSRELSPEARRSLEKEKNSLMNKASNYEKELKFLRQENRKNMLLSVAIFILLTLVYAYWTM
A0A0B4J1V1, A0A0B4J1V1, UniProt A0A0B4J1V1, whole entry: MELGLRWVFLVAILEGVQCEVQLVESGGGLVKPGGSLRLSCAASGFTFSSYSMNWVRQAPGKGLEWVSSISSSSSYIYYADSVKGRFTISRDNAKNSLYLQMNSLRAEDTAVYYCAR
UniProt Q9H1K1: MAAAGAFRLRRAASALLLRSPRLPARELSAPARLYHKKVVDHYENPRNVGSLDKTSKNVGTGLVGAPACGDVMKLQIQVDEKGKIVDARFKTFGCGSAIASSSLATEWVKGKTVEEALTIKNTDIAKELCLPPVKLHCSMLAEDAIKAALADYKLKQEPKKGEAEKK
UniProt P57740: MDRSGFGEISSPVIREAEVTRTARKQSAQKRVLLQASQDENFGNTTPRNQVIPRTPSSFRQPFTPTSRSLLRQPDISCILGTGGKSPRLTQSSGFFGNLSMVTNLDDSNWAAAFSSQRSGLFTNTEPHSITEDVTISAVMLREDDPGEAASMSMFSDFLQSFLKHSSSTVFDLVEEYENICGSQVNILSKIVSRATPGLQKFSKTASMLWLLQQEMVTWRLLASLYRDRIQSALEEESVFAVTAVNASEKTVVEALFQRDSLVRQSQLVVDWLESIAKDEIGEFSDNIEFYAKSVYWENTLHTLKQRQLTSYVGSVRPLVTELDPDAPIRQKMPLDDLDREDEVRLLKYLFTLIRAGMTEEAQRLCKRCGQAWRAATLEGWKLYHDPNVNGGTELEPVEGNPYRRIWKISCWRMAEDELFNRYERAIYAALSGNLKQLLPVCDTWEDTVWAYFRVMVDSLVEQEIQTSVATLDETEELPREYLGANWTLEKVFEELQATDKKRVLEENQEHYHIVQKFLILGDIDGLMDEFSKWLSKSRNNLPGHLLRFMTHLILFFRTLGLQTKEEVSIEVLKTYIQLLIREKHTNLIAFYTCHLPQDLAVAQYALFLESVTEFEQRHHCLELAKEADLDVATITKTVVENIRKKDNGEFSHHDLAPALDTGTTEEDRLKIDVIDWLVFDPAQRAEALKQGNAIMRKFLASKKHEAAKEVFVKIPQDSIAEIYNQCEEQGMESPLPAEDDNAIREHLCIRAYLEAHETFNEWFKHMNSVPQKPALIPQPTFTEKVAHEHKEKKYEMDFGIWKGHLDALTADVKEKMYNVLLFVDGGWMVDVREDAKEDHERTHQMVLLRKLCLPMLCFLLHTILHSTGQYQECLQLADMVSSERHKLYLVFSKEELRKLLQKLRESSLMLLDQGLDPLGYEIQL
UniProt P78316: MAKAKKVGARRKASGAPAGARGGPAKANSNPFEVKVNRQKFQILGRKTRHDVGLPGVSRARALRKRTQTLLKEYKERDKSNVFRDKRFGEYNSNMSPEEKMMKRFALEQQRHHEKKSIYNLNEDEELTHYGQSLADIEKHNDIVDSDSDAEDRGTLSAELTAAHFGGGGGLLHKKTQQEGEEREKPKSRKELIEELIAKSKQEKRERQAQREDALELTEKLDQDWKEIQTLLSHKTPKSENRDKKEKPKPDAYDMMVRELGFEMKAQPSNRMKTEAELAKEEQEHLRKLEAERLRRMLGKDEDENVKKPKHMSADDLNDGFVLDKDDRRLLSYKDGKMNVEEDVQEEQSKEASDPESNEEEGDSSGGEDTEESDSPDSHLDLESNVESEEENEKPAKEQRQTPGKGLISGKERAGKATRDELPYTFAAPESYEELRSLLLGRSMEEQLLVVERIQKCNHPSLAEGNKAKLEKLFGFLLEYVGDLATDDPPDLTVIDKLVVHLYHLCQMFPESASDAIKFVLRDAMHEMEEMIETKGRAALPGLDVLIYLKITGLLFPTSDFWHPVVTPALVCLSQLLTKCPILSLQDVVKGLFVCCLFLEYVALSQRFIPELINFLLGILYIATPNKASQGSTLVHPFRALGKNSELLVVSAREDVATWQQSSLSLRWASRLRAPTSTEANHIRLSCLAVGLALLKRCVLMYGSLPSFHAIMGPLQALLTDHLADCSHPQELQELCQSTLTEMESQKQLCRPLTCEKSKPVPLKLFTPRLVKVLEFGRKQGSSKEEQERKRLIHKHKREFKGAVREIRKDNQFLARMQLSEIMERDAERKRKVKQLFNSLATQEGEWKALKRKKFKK
UniProt P25490, whole entry: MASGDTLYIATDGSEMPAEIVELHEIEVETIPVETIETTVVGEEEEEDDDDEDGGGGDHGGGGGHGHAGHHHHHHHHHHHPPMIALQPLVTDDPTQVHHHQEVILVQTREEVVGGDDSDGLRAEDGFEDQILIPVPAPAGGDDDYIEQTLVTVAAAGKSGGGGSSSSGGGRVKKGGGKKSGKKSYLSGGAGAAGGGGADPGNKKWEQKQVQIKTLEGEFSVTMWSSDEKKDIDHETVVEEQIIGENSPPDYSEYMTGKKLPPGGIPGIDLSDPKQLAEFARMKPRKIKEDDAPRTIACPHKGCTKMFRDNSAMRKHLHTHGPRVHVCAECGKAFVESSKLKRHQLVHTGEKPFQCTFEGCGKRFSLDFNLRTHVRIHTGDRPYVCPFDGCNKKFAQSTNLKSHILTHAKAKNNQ
UniProt P40616: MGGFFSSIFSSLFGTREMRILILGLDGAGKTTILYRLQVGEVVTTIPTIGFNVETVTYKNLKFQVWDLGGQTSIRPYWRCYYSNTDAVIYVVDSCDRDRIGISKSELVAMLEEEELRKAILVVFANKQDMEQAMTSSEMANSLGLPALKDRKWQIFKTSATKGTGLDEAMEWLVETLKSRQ
UniProt Q8N0X7: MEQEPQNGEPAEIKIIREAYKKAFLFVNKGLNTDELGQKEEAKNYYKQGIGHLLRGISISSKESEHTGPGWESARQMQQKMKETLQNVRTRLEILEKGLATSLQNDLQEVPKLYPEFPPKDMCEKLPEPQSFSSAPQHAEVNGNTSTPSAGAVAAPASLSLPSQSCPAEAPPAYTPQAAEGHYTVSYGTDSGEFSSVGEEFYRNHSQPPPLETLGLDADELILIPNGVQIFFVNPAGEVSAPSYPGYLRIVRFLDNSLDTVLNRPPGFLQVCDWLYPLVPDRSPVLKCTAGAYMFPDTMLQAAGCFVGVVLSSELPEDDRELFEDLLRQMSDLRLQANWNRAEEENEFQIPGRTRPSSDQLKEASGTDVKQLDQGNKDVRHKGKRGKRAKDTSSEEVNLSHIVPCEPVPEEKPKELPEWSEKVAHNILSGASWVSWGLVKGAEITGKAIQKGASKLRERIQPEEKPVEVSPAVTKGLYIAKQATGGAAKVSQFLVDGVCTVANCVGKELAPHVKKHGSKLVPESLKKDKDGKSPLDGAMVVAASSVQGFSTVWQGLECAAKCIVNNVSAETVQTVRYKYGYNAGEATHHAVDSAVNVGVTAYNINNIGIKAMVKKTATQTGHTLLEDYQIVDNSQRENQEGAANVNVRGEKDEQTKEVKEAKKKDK
UniProt Q96BW5: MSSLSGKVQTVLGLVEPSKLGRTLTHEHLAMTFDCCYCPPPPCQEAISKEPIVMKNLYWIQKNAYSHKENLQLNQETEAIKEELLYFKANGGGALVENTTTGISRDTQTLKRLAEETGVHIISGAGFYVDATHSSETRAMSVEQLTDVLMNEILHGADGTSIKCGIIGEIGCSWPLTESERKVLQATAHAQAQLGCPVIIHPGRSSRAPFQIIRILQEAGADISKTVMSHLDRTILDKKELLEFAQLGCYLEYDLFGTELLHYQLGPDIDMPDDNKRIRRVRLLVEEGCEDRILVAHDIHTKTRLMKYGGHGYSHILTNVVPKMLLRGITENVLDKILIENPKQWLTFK

Compound in this assay: [O-][N+](C(C1=C(C(O)=C2)NC(C(C=C3)=CC=C3Cl)C4C1C=CC4)=C2Cl)=O
Briefly: melting temperature shift (compound 7 minus DMSO); higher = compound stabilises the protein. The settings on record: 10 µM. On the procedure: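 Thermal proteome profiling (TMT mass spectrometry) in intact DAOY medulloblastoma cells or DAOY lysates treated with 10 µM compound 7 or DMSO, heated at 10 temperatures from 40.5 to 73.8 °C for 3 min. Melting curves were fitted with the Bioconductor TPP package, and the melting point difference between compound and vehicle is reported per protein (single curve per condition).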

The mark [1] stands for this setting: system: DAOY cell lysate, treatment time: 20 min, 4 °C.
Where [2] appears, read: system: intact DAOY cells, treatment time: 90 min, 37 °C.

Repeats are few or missing, and single values can be far off.

Turning to POLR2C (UniProt P19387), the melting temperature shift under setting [1] was 0.0922 °C and the melting temperature shift under setting [2] was 0.00473 °C.
Taken in the same sequence, the figures for MTCH1 (UniProt Q9NZJ7) were -0.0428 °C and -0.379 °C.
As to ITSN2 (UniProt Q9NZM3), the melting temperature shift under setting [1] was -1.19 °C.
Still for that read-out and setting: the result for PODXL (UniProt O00592) reads 1.66 °C; that for MTSS1L (UniProt Q765P7), -2.37 °C.
Take FKBP3 (UniProt Q00688): the melting temperature shift under setting [1] was -0.945 °C and the melting temperature shift under setting [2] was -1.29 °C.
TPRG1L (UniProt Q5T0D9): under setting [1], the melting temperature shift came to 2.8 °C.
Take UniProt P27449: under setting [1], the melting temperature shift is -0.621 °C.
For the target TAOK3 (UniProt Q9H2K8), the melting temperature shift is -0.758 °C under setting [1] and -0.299 °C under setting [2].
For ITFG2 (UniProt Q969R8), the melting temperature shift is, setting by setting: under setting [1], -0.348 °C; under setting [2], 1.97 °C.
The like results for ATG2B (UniProt Q96BY7) were, in that order, -0.145 °C and -0.245 °C.
For UniProt P43366, the melting temperature shift under setting [1] was -0.136 °C and the melting temperature shift under setting [2] came out at 0.601 °C.
Turning to MBLAC2 (UniProt Q68D91), the melting temperature shift under setting [2] is -0.828 °C.
Take MTHFD2 (UniProt P13995): the melting temperature shift reads like this: under setting [1], 1.27 °C; under setting [2], -1.03 °C.
The like results for PPP5C (UniProt P53041) were, in that order, -1.01 °C and 0.448 °C.
The like results for UniProt P19784 were, in that order, -0.592 °C and -0.965 °C.
Turning to COMMD10 (UniProt Q9Y6G5), the melting temperature shift under setting [1] is -0.0829 °C and the melting temperature shift under setting [2] was -0.011 °C.
On to OSTF1 (UniProt Q92882), for which the melting temperature shift under setting [1] is -0.115 °C and the melting temperature shift under setting [2] is -0.266 °C.
Take UniProt Q9UKI2: the melting temperature shift under setting [1] was -2.28 °C.
Turning to POLR2H (UniProt P52434), the melting temperature shift was -0.351 °C under setting [1] and 0.249 °C under setting [2].
With UniProt Q9NX08, the melting temperature shift reads like this: under setting [1], -0.317 °C; under setting [2], -0.483 °C.
Taken in the same sequence, the figures for QPCTL (UniProt Q9NXS2) were 1.53 °C and -1.41 °C.
The like results for ASNA1 (UniProt O43681) were, in that order, -0.438 °C and -1.71 °C.
Take UniProt Q9H019: the melting temperature shift under setting [1] is -1.08 °C and the melting temperature shift under setting [2] was -3.5 °C.
Taken in the same sequence, the figures for NMT1 (UniProt P30419) were -0.157 °C and -0.694 °C.
Taken in the same sequence, the figures for LRRC59 (UniProt Q96AG4) were 2.23 °C and -0.312 °C.
Taken in the same sequence, the figures for OGFR (UniProt Q9NZT2) were 0.0826 °C and 1.73 °C.
On to HELB (UniProt Q8NG08), for which, under setting [2], the melting temperature shift was -0.192 °C.
Take UniProt P35219: the melting temperature shift is, setting by setting: under setting [1], -0.893 °C; under setting [2], -0.855 °C.
The like results for TMEM209 (UniProt Q96SK2) were, in that order, 1.52 °C and -1.1 °C.
UniProt P35716: the melting temperature shift under setting [2] was -1.62 °C.
For ETFDH (UniProt Q16134), the melting temperature shift under setting [1] is 1.71 °C.
In the case of ASCC2 (UniProt Q9H1I8), the melting temperature shift reads like this: under setting [1], -0.0237 °C; under setting [2], 1.5 °C.
As to PPP1R18 (UniProt Q6NYC8), the melting temperature shift under setting [2] was -7.99e-05 °C.
With EHBP1L1 (UniProt Q8N3D4), the melting temperature shift under setting [1] was found to be 1.02 °C and the melting temperature shift under setting [2] was 2.33 °C.
Turning to UniProt O75575, the melting temperature shift under setting [1] is -0.299 °C.
Take G3BP2 (UniProt Q9UN86): the melting temperature shift is 0.382 °C under setting [1] and -0.568 °C under setting [2].
Taken in the same sequence, the figures for CDK5RAP1 (UniProt Q96SZ6) were -1.89 °C and 1.82 °C.
Regarding CCDC167 (UniProt Q9P0B6), under setting [1], the melting temperature shift turned out to be 1.93 °C.
Consider ARMT1 (UniProt Q9H993), for which the melting temperature shift is, setting by setting: under setting [1], 0.171 °C; under setting [2], 0.431 °C.
In the case of EHBP1 (UniProt Q8NDI1), the melting temperature shift by setting is: under setting [1], -0.341 °C; under setting [2], -0.13 °C.
With ARHGEF11 (UniProt O15085), the melting temperature shift under setting [1] is -1.02 °C.
For the target DHX29 (UniProt Q7Z478), the melting temperature shift is -0.308 °C under setting [1] and -0.0683 °C under setting [2].
With LRRC41 (UniProt Q15345), the melting temperature shift under setting [1] was -0.981 °C.
For RCN2 (UniProt Q14257), the melting temperature shift by setting is: under setting [1], 0.0681 °C; under setting [2], 1.11 °C.
Turning to UniProt P49418, the melting temperature shift runs as follows: under setting [1], -0.418 °C; under setting [2], -0.266 °C.
On to UniProt Q92764, for which the melting temperature shift under setting [2] came out at 1.5 °C.
On to NAA20 (UniProt P61599), for which the melting temperature shift under setting [1] came out at 0.205 °C and the melting temperature shift under setting [2] was -1.07 °C.
As for C18ORF8 (UniProt Q96DM3), the melting temperature shift was -1.03 °C under setting [1] and 0.0465 °C under setting [2].
For the target GOT2 (UniProt P00505), the melting temperature shift under setting [2] was -0.412 °C.
In the case of COQ7 (UniProt Q99807), the melting temperature shift under setting [1] came to 1.11 °C and the melting temperature shift under setting [2] is -0.462 °C.
On to CNPY3 (UniProt Q9BT09), for which the melting temperature shift under setting [1] was 2.93 °C.
On to PARD6B (UniProt Q9BYG5), for which the melting temperature shift is 1.18 °C under setting [1] and -0.491 °C under setting [2].
Taken in the same sequence, the figures for A0A0B4J1V1, A0A0B4J1V1 were -1.17 °C and -1.62 °C.
As to FBXO38 (UniProt Q6PIJ6), the melting temperature shift reads like this: under setting [1], -0.514 °C; under setting [2], 0.201 °C.
On to MAN1A1 (UniProt P33908), for which the melting temperature shift is -0.976 °C under setting [1] and -2.89 °C under setting [2].
The like results for B4GALT1 (UniProt P15291) were, in that order, 0.0142 °C and 0.739 °C.
In the case of UniProt Q9H1B4, the melting temperature shift under setting [1] is -0.954 °C.
Take ISCU (UniProt Q9H1K1): under setting [1], the melting temperature shift was 2.12 °C.
On to NUP107 (UniProt P57740), for which the melting temperature shift is -0.704 °C under setting [1] and -0.306 °C under setting [2].
Taken in the same sequence, the figures for CHP1 (UniProt Q99653) were 1.28 °C and -1 °C.
Taken in the same sequence, the figures for AK2 (UniProt P54819) were -0.0984 °C and -1.32 °C.
AGTRAP (UniProt Q6RW13): under setting [1], the melting temperature shift was found to be 5.44 °C.
For CDC73 (UniProt Q6P1J9), the melting temperature shift is, setting by setting: under setting [1], -1.32 °C; under setting [2], -0.355 °C.
Taken in the same sequence, the figures for CAPN1 (UniProt P07384) were -0.622 °C and 0.561 °C.
The like results for RALBP1 (UniProt Q15311) were, in that order, -0.455 °C and 1.01 °C.
Taken in the same sequence, the figures for UniProt Q53FV1 were 0.74 °C and -0.609 °C.
For the target PVR (UniProt P15151), under setting [1], the melting temperature shift worked out at 3.6 °C.
As to UniProt Q5T7M9, the melting temperature shift under setting [2] is -0.66 °C.
Regarding DCTN1 (UniProt Q14203), the melting temperature shift was -0.755 °C under setting [1] and 0.248 °C under setting [2].
As to NOP14 (UniProt P78316), under setting [1], the melting temperature shift worked out at 0.701 °C.
Regarding ETFB (UniProt P38117), the melting temperature shift reads like this: under setting [1], 0.48 °C; under setting [2], 0.0614 °C.
For DLST (UniProt P36957), the melting temperature shift under setting [1] was 3.01 °C.
Consider MRPS6 (UniProt P82932), for which the melting temperature shift is, setting by setting: under setting [1], 0.559 °C; under setting [2], -2.31 °C.
On to UniProt Q9Y5K3, for which, under setting [2], the melting temperature shift is -0.458 °C.
In the case of YY1 (UniProt P25490), the melting temperature shift runs as follows: under setting [1], 1.64 °C; under setting [2], 0.526 °C.
The like results for TCEB3 (UniProt Q14241) were, in that order, -1.85 °C and -0.737 °C.
Taken in the same sequence, the figures for ARL1 (UniProt P40616) were -0.071 °C and -1.68 °C.
Regarding HIBADH (UniProt P31937), the melting temperature shift by setting is: under setting [1], 0.584 °C; under setting [2], 0.56 °C.
The like results for CTNNB1 (UniProt P35222) were, in that order, 0.905 °C and -0.0653 °C.
Regarding PSMB3 (UniProt P49720), the melting temperature shift under setting [2] is -1.15 °C.
Regarding PARVA (UniProt Q9NVD7), the melting temperature shift by setting is: under setting [1], 0.0574 °C; under setting [2], -0.266 °C.
Taken in the same sequence, the figures for EDRF1 (UniProt Q3B7T1) were 0.0445 °C and -0.727 °C.
As to SLC43A2 (UniProt Q8N370), the melting temperature shift under setting [1] came to 2.99 °C.
In the case of KATNA1 (UniProt O75449), the melting temperature shift runs as follows: under setting [1], -0.0811 °C; under setting [2], -0.69 °C.
For UniProt P0DPI2, the melting temperature shift under setting [2] is -0.21 °C.
Consider TUBGCP2 (UniProt Q9BSJ2), for which the melting temperature shift was -0.318 °C under setting [1] and 1.01 °C under setting [2].
Taken in the same sequence, the figures for UniProt Q8N201 were 0.0367 °C and -0.979 °C.
For SPG20 (UniProt Q8N0X7), the melting temperature shift was -0.0632 °C under setting [1] and -0.438 °C under setting [2].
For PTER (UniProt Q96BW5), the melting temperature shift under setting [2] was 0.751 °C.
